Source: patent publication US20220175768A1, “FGFR TYROSINE KINASE INHIBITORS FOR THE TREATMENT OF UROTHELIAL CARCINOMA” (Janssen Pharmaceutica NV, priority 2019, published 2022)
Read-outs that look alike come from different tables or passages of the source.

Amino acid sequences for entries named in this document (tags omitted).
UniProt P08684, whole entry: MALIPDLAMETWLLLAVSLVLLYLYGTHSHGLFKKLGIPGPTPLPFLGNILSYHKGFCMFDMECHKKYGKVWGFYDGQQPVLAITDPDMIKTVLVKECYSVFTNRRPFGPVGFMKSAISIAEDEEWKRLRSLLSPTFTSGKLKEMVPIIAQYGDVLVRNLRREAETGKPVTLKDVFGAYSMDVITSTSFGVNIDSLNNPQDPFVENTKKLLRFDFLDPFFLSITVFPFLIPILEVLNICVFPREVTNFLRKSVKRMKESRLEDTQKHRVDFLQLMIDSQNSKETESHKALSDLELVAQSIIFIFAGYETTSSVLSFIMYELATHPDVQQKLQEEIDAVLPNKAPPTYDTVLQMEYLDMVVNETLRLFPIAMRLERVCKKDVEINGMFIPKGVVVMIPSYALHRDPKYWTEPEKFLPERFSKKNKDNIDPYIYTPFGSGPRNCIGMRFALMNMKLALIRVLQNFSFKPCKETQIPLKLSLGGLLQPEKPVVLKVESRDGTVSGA
UniProt P11712, whole entry: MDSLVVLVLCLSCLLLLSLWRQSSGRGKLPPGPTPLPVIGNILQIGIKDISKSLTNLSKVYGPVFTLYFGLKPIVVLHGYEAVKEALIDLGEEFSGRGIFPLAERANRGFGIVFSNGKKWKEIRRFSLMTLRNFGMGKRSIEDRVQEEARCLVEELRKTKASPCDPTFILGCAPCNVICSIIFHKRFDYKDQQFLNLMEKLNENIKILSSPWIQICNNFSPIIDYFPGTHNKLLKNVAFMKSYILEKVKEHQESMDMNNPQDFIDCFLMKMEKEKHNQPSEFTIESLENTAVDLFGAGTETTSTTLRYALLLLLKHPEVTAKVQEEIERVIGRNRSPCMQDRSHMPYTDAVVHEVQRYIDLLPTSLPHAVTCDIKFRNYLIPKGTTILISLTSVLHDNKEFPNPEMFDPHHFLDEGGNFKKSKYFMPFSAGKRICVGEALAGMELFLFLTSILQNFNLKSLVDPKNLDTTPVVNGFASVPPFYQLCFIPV

Tests used:
[1] = molecular target: CYP3A4 (Homo sapiens, UniProt P08684); details: estimated
[2] = clinical; details: human, in vivo
[3] = test system: CYP2C9 or CYP3A4; details: in vivo
[4] = molecular target: CYP2C9 (Homo sapiens, UniProt P11712); details: estimated
[5] = test system: metastatic or surgically unresectable urothelial cancer harboring select FGFR genetic alterations
Description: The study comprises a Screening Phase (molecular screening at any time prior to first dose and study screening within 30 days of first dose), a treatment phase, and a post-treatment follow-up phase. The treatment phase comprises the period from first dose until the end-of-treatment visit. The follow-up phase extends until the subject has died, withdraws consent, is lost to follow-up, or the end of study, whichever comes first.
Included patients were adults with measurable urothelial cancer per Response Evaluation Criteria in Solid Tumors version 1.1.
Patients were required to have at least 1 FGFR2/FGFR3 mutation or fusion per central lab testing of RNA from formalin-fixed, paraffin-embedded tumor samples, using a custom reverse transcriptase polymerase chain reaction assay.
The primary end point of this study is Objective Response Rate to the selected regimen (Regimen 3).
Secondary end points include progression-free survival (PFS), response duration, Overall Survival, safety, response rate in biomarker-specific subgroups, and pharmacokinetics.
The study was designed to enroll 180 patients with specified FGFR alterations. Of these, ≥88 were required in the selected regimen. […] Responses were assessed by investigators and an independent radiological review committee. Progression-free survival and overall survival were estimated using Kaplan-Meier product limit method. Data from patients who were progression free and alive or with unknown status were censored at last tumor assessment. Efficacy end points were analysed at primary analysis cut-off.

[6] = 6 mg continuous, regimen 2 (n = 78)
[7] = 8 mg continuous, selected regimen 3 (n = 99)
[8] = 10 mg intermittent, regimen 1 (n = 33)

COc1cc(OC)cc(N(CCNC(C)C)c2ccc3ncc(-c4cnn(C)c4)nc3c2)c1 [erdafitinib, N-(3,5-dimethoxy-phenyl)-N′-(1-methylethyl)-N-[3-(1-methyl-1H-pyrazol-4-yl)quinoxalin-6-yl]ethane-1,2-diamine]
Contribution of CYP3A4 in the total clearance [1]: 20%
Tmax [2]: 2.5 h
Patients with Nail discoloration, Any grade [6]: 8 (10) no. (%)
Patients with Nail discoloration, Grade 1 [6]: 6 (8) no. (%)
Patients with Nail discoloration, Grade 2 [6]: 2 (3) no. (%)
Patients with Nail discoloration, Grade ≥3 [6]: 0 no. (%)
Treatment-related adverse event: Nail discoloration, Any grade [6]: 8 (10) no. (%)
Treatment-related adverse event: Nail discoloration, Grade 1 [6]: 6 (8) no. (%)
Treatment-related adverse event: Nail discoloration, Grade 2 [6]: 2 (3) no. (%)
Treatment-related adverse event: Nail discoloration, Grade ≥3 [6]: 0 no. (%)
Patients with Nail discoloration, Any grade [7]: 11 (11) no. (%)
Patients with Nail discoloration, Grade 1 [7]: 8 (8) no. (%)
Patients with Nail discoloration, Grade 2 [7]: 3 (3) no. (%)
Patients with Nail discoloration, Grade ≥3 [7]: 0 no. (%)
Patients with Nail discoloration, Any grade [8]: 1 (3) no. (%)
Patients with Nail discoloration, Grade 1 [8]: 0 no. (%)
Patients with Nail discoloration, Grade 2 [8]: 1 (3) no. (%)
Patients with Nail discoloration, Grade ≥3 [8]: 0 no. (%)
Treatment-related adverse event: Nail discoloration, Any grade [8]: 1 (3) no. (%)
Treatment-related adverse event: Nail discoloration, Grade 1 [8]: 0 no. (%)
Treatment-related adverse event: Nail discoloration, Grade 2 [8]: 1 (3) no. (%)
Treatment-related adverse event: Nail discoloration, Grade ≥3 [8]: 0 no. (%)
Effect of co-administration of strong inhibitors of CYP2C9 or CYP3A4 [3]: increased erdafitinib plasma concentrations
Contribution of CYP2C9 in the total clearance [4]: 39%
Median DoR, investigator assessment ([5]; Chemotherapy-refractory patients in Regimen 3 (N = 87)): 5.55 months
Median duration of response ([5]; Regimen 1, 10 mg intermittent (n = 33)): 13.4 mo
Median duration of response ([5]; Regimen 2, 6 mg continuous (n = 78)): 4.9 mo
Median duration of stable disease ([5]; Regimen 3, patients with FGFR mutations (n=74)): 3.7 months
